Assay [1] relates to Panc-1 pancreatic cancer cells. Briefly: Colorimetric MTS cytotoxicity assay in Panc-1 cells. It is filed as cell-based. Conditions: Homo sapiens, PANC-1, 72 h. A general note: Tetrazolium dyes change colour on reduction, which living cells bring about.
Assay [2] has as its system MIA-PaCa-2 pancreatic cancer cells. Briefly: Colorimetric MTS cytotoxicity assay in MIA-PaCa-2 cells. It is filed as cell-based. Conditions: Homo sapiens, MIA PaCa-2, 72 h.

Usually IC50 stands for the concentration needed to halve the response being measured. A low value points to inhibition by little substance.

Consider `Clc1ccc2c(c1)CCc1cccnc1C2=C1CCNCC1` [DES (free), Desloratadine], for which the IC50 in assay [1] was 250 µM; in assay [2], 267 µM.

These data come from patent US11607384B2, “Lipid emulsified drug delivery systems for chemoprevention and treatment” (WESTERN UNIVERSITY OF HEALTH SCIENCES, priority 2017, dated 2023).
